This experiment addresses CG/LH receptor of transformed murine Leydig cells (MA-10) (murine) (UniProt P30730). Briefly: told in words; bioactivity assay on murine Leydig MA-10 cells.

The chains behind the UniProt entries cited, without tags or fusion partners. Where a name states a change or a piece, a line headed by the entry shows the natural chain unless it says otherwise. Residues count along the entry.
UniProt P30730, residues 27-700: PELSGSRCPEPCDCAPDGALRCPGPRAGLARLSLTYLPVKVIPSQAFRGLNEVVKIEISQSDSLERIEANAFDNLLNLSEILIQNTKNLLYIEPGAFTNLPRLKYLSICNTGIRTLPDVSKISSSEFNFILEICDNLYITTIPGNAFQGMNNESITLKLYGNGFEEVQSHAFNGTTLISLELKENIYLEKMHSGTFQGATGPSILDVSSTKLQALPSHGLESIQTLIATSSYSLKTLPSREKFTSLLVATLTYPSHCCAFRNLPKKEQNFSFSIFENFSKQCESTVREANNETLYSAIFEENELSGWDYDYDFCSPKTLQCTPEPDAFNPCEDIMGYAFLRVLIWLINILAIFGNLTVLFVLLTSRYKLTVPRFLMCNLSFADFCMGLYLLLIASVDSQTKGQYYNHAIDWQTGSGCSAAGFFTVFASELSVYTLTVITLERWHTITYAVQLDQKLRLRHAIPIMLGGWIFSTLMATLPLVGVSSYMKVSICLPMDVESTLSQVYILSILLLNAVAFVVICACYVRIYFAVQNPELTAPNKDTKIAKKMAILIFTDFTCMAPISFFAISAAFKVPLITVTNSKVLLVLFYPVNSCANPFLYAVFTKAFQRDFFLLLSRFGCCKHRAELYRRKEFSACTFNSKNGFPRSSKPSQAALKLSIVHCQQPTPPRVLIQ
UniProt P01215: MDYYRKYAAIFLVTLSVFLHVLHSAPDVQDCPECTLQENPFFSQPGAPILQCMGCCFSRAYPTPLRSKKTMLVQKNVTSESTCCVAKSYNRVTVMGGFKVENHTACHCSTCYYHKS

Results are given in words; binding and its absence hold for the method and conditions named. Some entries that bind do so weakly or less than the wild type.

For “mutant hCG heterodimer of wild type common α-subunit and hCG-βN77D (from UniProt P01215 25-116; P0DN86 21-160) (ligand)”, the binding entry is reported as “binds”.

For the origin of these results see US20040265972A1.
